The source gives many values for each of these; only a part stands here.
What was measured:
Type in all cases: cell-based
Settings in all cases: U-87MG ATCC
[1] = Inhibition of RTK/PI3K/AKT/mTOR signaling in human U87 cells assessed as up regulation of chromosome 16 open reading frame 52 gene expression at cytotoxic IC50 measured after 48 hrs relative to control
[2] = Inhibition of RTK/PI3K/AKT/mTOR signaling in human U87 cells assessed as down regulation of RFC5 gene expression at cytotoxic IC50 measured after 48 hrs relative to control
[3] = Inhibition of RTK/PI3K/AKT/mTOR signaling in human U87 cells assessed as down regulation of MGAM gene expression at cytotoxic IC50 measured after 48 hrs relative to control
[4] = Inhibition of RTK/PI3K/AKT/mTOR signaling in human U87 cells assessed as down regulation of PHACTR2 gene expression at cytotoxic IC50 measured after 48 hrs relative to control
[5] = Inhibition of RTK/PI3K/AKT/mTOR signaling in human U87 cells assessed as down regulation of AMBRA1 gene expression at cytotoxic IC50 measured after 48 hrs relative to control
[6] = Inhibition of RTK/PI3K/AKT/mTOR signaling in human U87 cells assessed as up regulation of zinc finger and BTB domain containing 7B gene expression at cytotoxic IC50 measured after 48 hrs relative to control
[7] = Inhibition of RTK/PI3K/AKT/mTOR signaling in human U87 cells assessed as down regulation of YKT6 gene expression at cytotoxic IC50 measured after 48 hrs relative to control
[8] = Inhibition of RTK/PI3K/AKT/mTOR signaling in human U87 cells assessed as up regulation of coagulation factor III, tissue factor gene expression at cytotoxic IC50 measured after 48 hrs relative to control
[9] = Inhibition of RTK/PI3K/AKT/mTOR signaling in human U87 cells assessed as up regulation of Ras related GTP binding D gene expression at cytotoxic IC50 measured after 48 hrs relative to control
[10] = Inhibition of RTK/PI3K/AKT/mTOR signaling in human U87 cells assessed as down regulation of EWSR1 gene expression at cytotoxic IC50 measured after 48 hrs relative to control
[11] = Inhibition of RTK/PI3K/AKT/mTOR signaling in human U87 cells assessed as down regulation of PCSK7 gene expression at cytotoxic IC50 measured after 48 hrs relative to control
[12] = Inhibition of RTK/PI3K/AKT/mTOR signaling in human U87 cells assessed as down regulation of GSR gene expression at cytotoxic IC50 measured after 48 hrs relative to control
[13] = Inhibition of RTK/PI3K/AKT/mTOR signaling in human U87 cells assessed as up regulation of SPTBN5 gene expression at cytotoxic IC50 measured after 48 hrs relative to control
[14] = Inhibition of RTK/PI3K/AKT/mTOR signaling in human U87 cells assessed as up regulation of paralemmin gene expression at cytotoxic IC50 measured after 48 hrs relative to control
[15] = Inhibition of RTK/PI3K/AKT/mTOR signaling in human U87 cells assessed as up regulation of aldehyde dehydrogenase 1 family member A3 gene expression at cytotoxic IC50 measured after 48 hrs relative to control
[16] = Inhibition of RTK/PI3K/AKT/mTOR signaling in human U87 cells assessed as up regulation of mitogen-activated protein kinase kinase kinase kinase 5 gene expression at cytotoxic IC50 measured after 48 hrs relative to control
[17] = Inhibition of RTK/PI3K/AKT/mTOR signaling in human U87 cells assessed as up regulation of RSL1D1 gene expression at cytotoxic IC50 measured after 48 hrs relative to control
[18] = Inhibition of RTK/PI3K/AKT/mTOR signaling in human U87 cells assessed as down regulation of MUL1 gene expression at cytotoxic IC50 measured after 48 hrs relative to control
[19] = Inhibition of RTK/PI3K/AKT/mTOR signaling in human U87 cells assessed as up regulation of copine 7 gene expression at cytotoxic IC50 measured after 48 hrs relative to control
[20] = Inhibition of RTK/PI3K/AKT/mTOR signaling in human U87 cells assessed as up regulation of NDC1 transmembrane nucleoporin gene expression at cytotoxic IC50 measured after 48 hrs relative to control
[21] = Inhibition of RTK/PI3K/AKT/mTOR signaling in human U87 cells assessed as up regulation of FHAD1 gene expression at cytotoxic IC50 measured after 48 hrs relative to control
[22] = Inhibition of RTK/PI3K/AKT/mTOR signaling in human U87 cells assessed as down regulation of SART3 gene expression at cytotoxic IC50 measured after 48 hrs relative to control
[23] = Inhibition of RTK/PI3K/AKT/mTOR signaling in human U87 cells assessed as down regulation of SFT2D2 gene expression at cytotoxic IC50 measured after 48 hrs relative to control
[24] = Inhibition of RTK/PI3K/AKT/mTOR signaling in human U87 cells assessed as down regulation of TRIM26 gene expression at cytotoxic IC50 measured after 48 hrs relative to control
[25] = Inhibition of RTK/PI3K/AKT/mTOR signaling in human U87 cells assessed as up regulation of C1orf116 gene expression at cytotoxic IC50 measured after 48 hrs relative to control
[26] = Inhibition of RTK/PI3K/AKT/mTOR signaling in human U87 cells assessed as up regulation of GDF15 gene expression at cytotoxic IC50 measured after 48 hrs relative to control
[27] = Inhibition of RTK/PI3K/AKT/mTOR signaling in human U87 cells assessed as up regulation of methionyl aminopeptidase type 1D, mitochondrial gene expression at cytotoxic IC50 measured after 48 hrs relative to control
[28] = Inhibition of RTK/PI3K/AKT/mTOR signaling in human U87 cells assessed as down regulation of ANAPC10 gene expression at cytotoxic IC50 measured after 48 hrs relative to control
[29] = Inhibition of RTK/PI3K/AKT/mTOR signaling in human U87 cells assessed as up regulation of proline and serine rich 2 gene expression at cytotoxic IC50 measured after 48 hrs relative to control
[30] = Inhibition of RTK/PI3K/AKT/mTOR signaling in human U87 cells assessed as up regulation of C1orf21 gene expression at cytotoxic IC50 measured after 48 hrs relative to control
[31] = Inhibition of RTK/PI3K/AKT/mTOR signaling in human U87 cells assessed as down regulation of COQ10B gene expression at cytotoxic IC50 measured after 48 hrs relative to control
[32] = Inhibition of RTK/PI3K/AKT/mTOR signaling in human U87 cells assessed as up regulation of hydroxymethylbilane synthase gene expression at cytotoxic IC50 measured after 48 hrs relative to control

CC(=O)C(=NNc1ccccc1C#N)C(C)=O
log2FC [1]: 0.839 | log2FC [2]: -0.705 | log2FC [3]: -2.93 | log2FC [4]: -0.866 | log2FC [5]: -1.13 | log2FC [6]: 0.92 | log2FC [7]: -0.905 | log2FC [8]: 1.24 | log2FC [9]: 0.647 | log2FC [10]: -0.612 | log2FC [11]: -1.16 | log2FC [12]: -0.337 | log2FC [13]: 3.23 | log2FC [14]: 1.24 | log2FC [15]: 1.08 | log2FC [16]: 0.716 | log2FC [17]: 0.4 | log2FC [18]: -0.729 | log2FC [19]: 1.38 | log2FC [20]: 0.885 | log2FC [21]: 2.01 | log2FC [22]: -0.425 | log2FC [23]: -0.874 | log2FC [24]: -0.854 | log2FC [25]: 1.74 | log2FC [26]: 2.89 | log2FC [27]: 1.45 | log2FC [28]: -1 | log2FC [29]: 1.18 | log2FC [30]: 1.71 | log2FC [31]: -0.878 | log2FC [32]: 0.699
